Assay results taken from PubChem BioAssay AID256 (DTP/NCI, 2004).
The list is a part of this screen's results and no random one: it gathers tests that were run many times, whatever their T/C, doses with no T/C, and many T/C values between a quarter and a half above the control. Other doses and runs of a compound stand elsewhere. T/C gives the treated animals as a percentage of the vehicle group. Some doses have a count of surviving animals in place of a T/C: the source holds a T/C of zero for them, seemingly a mark for toxic or unscored doses. Some survivor counts are full or nearly so, which does not show that the dose was tolerated: survival well below the control is almost never listed, so the zero probably covers shortened survival too. Survivors were counted at the toxicity check, usually on the fifth day, unless a day is given; later deaths do not show. Schedule codes are those of the source, read here as Q, the interval in days (D) or hours (H), X, the number of doses. Where survival is the endpoint, this PubChem deposit counts one and a half times the control or more as active, and values a quarter to a half above the control carry no call in these data; other NCI protocols may use other cut-offs. Some T/C values carry the count of animals alive at the toxicity check (mostly the fifth day); without a count, all were alive then. Some entries hold several experiments; the results are listed from low to high. Counts like (3×) count equal records among those shown.

System: CD2F1 mice, L1210 leukemia ip, survival T/C
Experiment: NCI In Vivo Anticancer Drug Screen. Data for tumor model L1210 Leukemia (intraperitoneal) in CD2F1 (CDF1) mice
Details: T/C endpoint: median survival time, higher T/C = longer survival
Outline: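 Each value reflects a quotient of treated over vehicle control outcomes in mice with a transplanted tumor.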

In the case of `COc1cccc2c1C(=O)c1c(O)c3c(c(O)c1C2=O)C[C@@](O)(C(=O)CO)C[C@@H]3OC1CC(N)C(O)C(C)O1` (stereo partly drawn), the T/C (dose: 2.0 mg/kg/injection, schedule: Q01DX005 (iv), vehicle: water) is reported as 125 % of control, the T/C (dose: 2.0 mg/kg/injection, schedule: Q01DX009 (ip), vehicle: saline, evaluated on day 5) is reported as 130 and 168 % of control [4 of 6 alive] and the T/C (dose: 2.0 mg/kg/injection, schedule: Q01DX009 (ip), vehicle: saline, evaluated on day 30) is reported as 156 and 200 % of control. For the same compound, the T/C (dose: 2.0 mg/kg/injection, schedule: Q04DX003 (ip), vehicle: saline) was 143 % of control, the T/C (dose: 2.0 mg/kg/injection, schedule: Q04DX003 (ip), vehicle: water) was 134 % of control and the T/C (dose: 2.4 mg/kg/injection, schedule: Q01DX001 (ip), vehicle: saline) was 125 and 139 % of control. The T/C (dose: 2.5 mg/kg/injection, schedule: Q01DX001 (ip), vehicle: saline, evaluated on day 5) was 143 % of control, the T/C (dose: 2.5 mg/kg/injection, schedule: Q01DX001 (ip), vehicle: saline, evaluated on day 45) was 138 % of control and the T/C (dose: 3.0 mg/kg/injection, schedule: Q04DX003 (ip), vehicle: water, evaluated on day 5) was 131 % of control. The T/C (dose: 3.0 mg/kg/injection, schedule: Q04DX003 (ip), vehicle: water, evaluated on day 61) was 131 % of control, the T/C (dose: 3.5 mg/kg/injection, schedule: Q01DX001 (ip), vehicle: saline) was 134 % of control and the T/C (dose: 3.6 mg/kg/injection, schedule: Q01DX001 (ip), vehicle: saline) was 129 % of control. The T/C (dose: 4.0 mg/kg/injection, schedule: Q01DX001 (ip), vehicle: saline, evaluated on day 6) was 104, 107, 117, 128 (2×), 131 % of control, the T/C (dose: 4.0 mg/kg/injection, schedule: Q01DX001 (ip), vehicle: saline, evaluated on day 11) was 104, 107, 117, 128 (2×), 131 % of control and the T/C (dose: 4.0 mg/kg/injection, schedule: Q01DX001 (ip), vehicle: water, evaluated on day 5) was 141 % of control. For the same compound, the T/C (dose: 4.0 mg/kg/injection, schedule: Q01DX001 (ip), vehicle: water, evaluated on day 33) was 141 % of control, the T/C (dose: 4.0 mg/kg/injection, schedule: Q01DX005 (ip), vehicle: water) was 137 % of control and the T/C (dose: 4.0 mg/kg/injection, schedule: Q01DX005 (iv), vehicle: water) was 137 % of control. The T/C (dose: 4.0 mg/kg/injection, schedule: Q01DX009 (ip), vehicle: saline, evaluated on day 5) was 95 and 101 % of control, the T/C (dose: 4.0 mg/kg/injection, schedule: Q01DX009 (ip), vehicle: saline, evaluated on day 30) was 121 and 147 % of control and the T/C (dose: 4.0 mg/kg/injection, schedule: Q04DX003 (ip), vehicle: water) was 146 % of control. The T/C (dose: 5.8 mg/kg/injection, schedule: Q01DX001 (ip), vehicle: saline, evaluated on day 5) was 144 % of control, the T/C (dose: 5.8 mg/kg/injection, schedule: Q01DX001 (ip), vehicle: saline, evaluated on day 6) was 147 % of control and the T/C (dose: 6.0 mg/kg/injection, schedule: Q01DX001 (ip), vehicle: saline) was 131 % of control. The T/C (dose: 8.0 mg/kg/injection, schedule: Q01DX001 (ip), vehicle: saline, evaluated on day 5) was 110 % of control, the T/C (dose: 8.0 mg/kg/injection, schedule: Q01DX001 (ip), vehicle: saline, evaluated on day 6) was 106, 111, 122, 130 (2×), 139 % of control and the T/C (dose: 8.0 mg/kg/injection, schedule: Q01DX001 (ip), vehicle: saline, evaluated on day 11) was 106, 111, 122, 130 (2×), 139 % of control. For the same compound, the T/C (dose: 8.0 mg/kg/injection, schedule: Q01DX001 (ip), vehicle: water, evaluated on day 5) was 141 % of control, the T/C (dose: 8.0 mg/kg/injection, schedule: Q01DX001 (ip), vehicle: water, evaluated on day 33) was 141 % of control and the T/C (dose: 8.0 mg/kg/injection, schedule: Q01DX001 (iv), vehicle: water, evaluated on day 5) was 140 % of control. The T/C (dose: 8.0 mg/kg/injection, schedule: Q01DX001 (iv), vehicle: water, evaluated on day 33) was 140 % of control, the T/C (dose: 10.0 mg/kg/injection, schedule: Q01DX001 (ip), vehicle: saline, evaluated on day 5) was 129, 179, 183 % of control and the T/C (dose: 10.0 mg/kg/injection, schedule: Q01DX001 (ip), vehicle: saline, evaluated on day 45) was 172 % of control. For the same compound, the T/C (dose: 10.0 mg/kg/injection, schedule: Q04DX003 (ip), vehicle: saline) was 131 % of control, the survivor count (dose: 14.0 mg/kg/injection, schedule: Q04DX003 (ip), vehicle: water) was 8 of 8 and the T/C (dose: 16.0 mg/kg/injection, schedule: Q01DX001 (ip), vehicle: saline, evaluated on day 5) was 172 % of control. The T/C (dose: 16.0 mg/kg/injection, schedule: Q01DX001 (ip), vehicle: saline, evaluated on day 6) was 85 [4 of 5 alive], 114, 121, 131, 141, 149, 160 % of control, the T/C (dose: 16.0 mg/kg/injection, schedule: Q01DX001 (ip), vehicle: saline, evaluated on day 11) was 114, 121, 131, 141, 149, 160 % of control and the survivor count (dose: 16.0 mg/kg/injection, schedule: Q01DX001 (ip), vehicle: water) was 6 of 8. The survivor count (dose: 16.0 mg/kg/injection, schedule: Q01DX009 (ip), vehicle: saline) was 6 of 6, the survivor count (dose: 20.0 mg/kg/injection, schedule: Q01DX001 (ip), vehicle: saline) was 9 of 10 and the survivor count (dose: 32.0 mg/kg/injection, schedule: Q01DX001 (iv), vehicle: water) was 5 of 8. The survivor count (dose: 40.0 mg/kg/injection, schedule: Q01DX001 (ip), vehicle: saline) was 3 of 10.
